From article doi:10.1101/2025.04.25.650668 come the findings set out here.

The target of the test is GST-RBD (Rhotekin binding domain) (UniProt Q8C6B2). Put plainly: pull-down.

These are yes or no findings as the source states them, for the method shown. Binding seen in cells or lysates may run through a third protein. A result given as binding can be weak or reduced; the word gives no strength.

For the substance RhoA (from UniProt P61586 1-193), the binding entry is “binds”.
